No constants are given. Whether binding was seen depends on the method and setting. In cells and extracts the contact can be indirect. Some results given as binding are weak or reduced against the parent protein; the word gives no strength. Where a sequence is shown, tags or fusion partners need not be part of it.
T1: C9orf72-HA (C-terminal HA-tagged C9orf72) (UniProt Q96LT7)
T1 sequence: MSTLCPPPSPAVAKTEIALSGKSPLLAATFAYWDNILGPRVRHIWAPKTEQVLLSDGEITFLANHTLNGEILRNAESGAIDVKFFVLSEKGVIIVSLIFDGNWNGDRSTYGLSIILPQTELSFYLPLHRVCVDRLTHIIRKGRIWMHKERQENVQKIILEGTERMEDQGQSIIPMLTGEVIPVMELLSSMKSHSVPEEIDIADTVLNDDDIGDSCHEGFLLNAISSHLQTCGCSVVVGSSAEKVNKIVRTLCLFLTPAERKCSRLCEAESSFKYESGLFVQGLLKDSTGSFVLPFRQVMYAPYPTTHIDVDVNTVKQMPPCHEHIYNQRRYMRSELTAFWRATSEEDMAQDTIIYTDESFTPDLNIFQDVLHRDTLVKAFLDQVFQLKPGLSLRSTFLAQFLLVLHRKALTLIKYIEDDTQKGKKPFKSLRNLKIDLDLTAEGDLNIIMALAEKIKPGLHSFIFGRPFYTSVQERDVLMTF

The chains behind the UniProt entries cited, without tags or fusion partners.
UniProt O95071: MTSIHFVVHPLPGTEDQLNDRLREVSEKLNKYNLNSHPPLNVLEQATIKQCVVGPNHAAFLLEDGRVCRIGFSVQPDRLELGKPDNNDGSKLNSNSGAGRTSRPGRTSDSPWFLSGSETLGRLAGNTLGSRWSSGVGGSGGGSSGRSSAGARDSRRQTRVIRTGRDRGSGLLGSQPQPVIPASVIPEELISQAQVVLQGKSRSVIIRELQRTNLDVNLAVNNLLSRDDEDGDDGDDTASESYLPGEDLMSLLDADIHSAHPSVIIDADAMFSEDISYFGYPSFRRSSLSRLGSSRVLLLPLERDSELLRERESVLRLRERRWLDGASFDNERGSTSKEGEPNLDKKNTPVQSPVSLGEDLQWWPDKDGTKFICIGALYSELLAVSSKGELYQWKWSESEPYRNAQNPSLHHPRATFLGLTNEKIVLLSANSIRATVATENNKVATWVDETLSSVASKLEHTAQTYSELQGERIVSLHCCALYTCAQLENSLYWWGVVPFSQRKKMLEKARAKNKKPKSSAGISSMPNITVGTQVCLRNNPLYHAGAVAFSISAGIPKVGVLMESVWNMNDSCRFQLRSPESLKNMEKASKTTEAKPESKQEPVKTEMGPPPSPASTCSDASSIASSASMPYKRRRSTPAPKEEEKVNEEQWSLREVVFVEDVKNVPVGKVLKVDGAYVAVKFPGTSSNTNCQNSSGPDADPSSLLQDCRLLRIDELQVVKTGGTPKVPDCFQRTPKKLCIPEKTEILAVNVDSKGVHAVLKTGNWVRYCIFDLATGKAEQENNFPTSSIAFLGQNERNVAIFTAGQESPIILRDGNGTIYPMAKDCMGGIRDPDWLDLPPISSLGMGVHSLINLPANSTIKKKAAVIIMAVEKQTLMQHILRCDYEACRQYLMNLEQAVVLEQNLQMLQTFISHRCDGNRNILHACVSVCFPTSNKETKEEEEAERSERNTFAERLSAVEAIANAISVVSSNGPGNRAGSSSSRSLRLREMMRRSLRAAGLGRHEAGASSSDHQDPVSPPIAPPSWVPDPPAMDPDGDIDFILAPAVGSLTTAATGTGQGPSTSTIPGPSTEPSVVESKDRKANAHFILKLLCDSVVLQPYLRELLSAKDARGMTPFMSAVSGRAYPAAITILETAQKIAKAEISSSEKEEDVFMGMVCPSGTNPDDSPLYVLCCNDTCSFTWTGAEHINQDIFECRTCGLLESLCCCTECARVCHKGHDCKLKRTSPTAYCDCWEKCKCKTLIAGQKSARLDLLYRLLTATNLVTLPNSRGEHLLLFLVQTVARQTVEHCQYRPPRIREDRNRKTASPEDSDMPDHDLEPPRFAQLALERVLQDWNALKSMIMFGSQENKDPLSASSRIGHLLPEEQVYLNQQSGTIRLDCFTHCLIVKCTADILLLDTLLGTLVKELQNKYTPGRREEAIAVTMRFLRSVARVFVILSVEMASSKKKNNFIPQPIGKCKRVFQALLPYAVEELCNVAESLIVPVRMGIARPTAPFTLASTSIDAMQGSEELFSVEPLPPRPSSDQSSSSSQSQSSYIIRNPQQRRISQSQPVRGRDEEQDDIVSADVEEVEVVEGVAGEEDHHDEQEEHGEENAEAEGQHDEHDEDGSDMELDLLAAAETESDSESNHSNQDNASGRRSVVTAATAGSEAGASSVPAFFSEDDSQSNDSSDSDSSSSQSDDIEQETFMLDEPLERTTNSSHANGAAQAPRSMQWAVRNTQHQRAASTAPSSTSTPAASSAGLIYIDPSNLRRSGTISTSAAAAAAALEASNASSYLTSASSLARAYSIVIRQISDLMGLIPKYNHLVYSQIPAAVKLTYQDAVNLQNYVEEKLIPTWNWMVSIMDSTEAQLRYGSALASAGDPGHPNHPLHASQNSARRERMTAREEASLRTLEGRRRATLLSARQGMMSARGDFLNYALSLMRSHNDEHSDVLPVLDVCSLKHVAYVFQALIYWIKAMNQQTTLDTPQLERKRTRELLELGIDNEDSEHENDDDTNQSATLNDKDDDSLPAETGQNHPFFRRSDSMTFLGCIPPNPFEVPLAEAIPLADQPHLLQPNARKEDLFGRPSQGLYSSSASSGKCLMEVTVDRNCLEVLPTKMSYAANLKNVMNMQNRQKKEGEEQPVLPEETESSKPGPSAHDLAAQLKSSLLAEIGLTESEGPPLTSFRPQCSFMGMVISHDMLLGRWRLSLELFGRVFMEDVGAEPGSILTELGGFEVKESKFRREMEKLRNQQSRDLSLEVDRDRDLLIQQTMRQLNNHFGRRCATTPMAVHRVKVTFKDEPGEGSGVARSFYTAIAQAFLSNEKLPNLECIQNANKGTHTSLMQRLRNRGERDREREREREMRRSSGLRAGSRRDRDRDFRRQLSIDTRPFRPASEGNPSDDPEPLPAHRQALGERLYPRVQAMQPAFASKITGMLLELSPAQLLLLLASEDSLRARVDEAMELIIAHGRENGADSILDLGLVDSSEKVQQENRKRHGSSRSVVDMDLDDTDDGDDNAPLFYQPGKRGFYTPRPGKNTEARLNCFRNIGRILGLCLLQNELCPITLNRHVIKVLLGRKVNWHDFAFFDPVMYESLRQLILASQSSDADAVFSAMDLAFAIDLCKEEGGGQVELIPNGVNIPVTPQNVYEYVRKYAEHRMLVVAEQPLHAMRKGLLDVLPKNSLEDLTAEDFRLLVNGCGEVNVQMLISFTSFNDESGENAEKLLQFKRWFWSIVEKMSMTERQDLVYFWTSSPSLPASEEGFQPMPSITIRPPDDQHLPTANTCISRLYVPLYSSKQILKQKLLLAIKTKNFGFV


Experiments:
GFP-UBR5 = GFP-UBR5 (UniProt O95071); experiment: pull-down; Streptavidin agarose loaded with biotinylated GFP VHH nanobodies, incubated with 293T lysates in MCLB buffer overnight at 4°C; cells treated with DMSO or Btz; immunoblot
[1] = target: T1, C9orf72-HA (C-terminal HA-tagged C9orf72); experiment: co-IP; HA-IP (anti-HA beads, overnight, 4°C, MCLB buffer) from C9orf72-HA expressing parental and SMCR8 KO 293T cells treated with DMSO or Btz; immunoblot

binding (GFP-UBR5)	binding [1]	Binder
binds		C9orf72-HA (C-terminal HA-tagged C9orf72) (protein, UniProt Q96LT7 1-481) MSTLCPPPSPAVAKTEIALSGKSPLLAATFAYWDNILGPRVRHIWAPKTEQVLLSDGEITFLANHTLNGEILRNAESGAIDVKFFVLSEKGVIIVSLIFDGNWNGDRSTYGLSIILPQTELSFYLPLHRVCVDRLTHIIRKGRIWMHKERQENVQKIILEGTERMEDQGQSIIPMLTGEVIPVMELLSSMKSHSVPEEIDIADTVLNDDDIGDSCHEGFLLNAISSHLQTCGCSVVVGSSAEKVNKIVRTLCLFLTPAERKCSRLCEAESSFKYESGLFVQGLLKDSTGSFVLPFRQVMYAPYPTTHIDVDVNTVKQMPPCHEHIYNQRRYMRSELTAFWRATSEEDMAQDTIIYTDESFTPDLNIFQDVLHRDTLVKAFLDQVFQLKPGLSLRSTFLAQFLLVLHRKALTLIKYIEDDTQKGKKPFKSLRNLKIDLDLTAEGDLNIIMALAEKIKPGLHSFIFGRPFYTSVQERDVLMTF
binds		endogenous C9orf72 (protein, UniProt Q96LT7 1-481) MSTLCPPPSPAVAKTEIALSGKSPLLAATFAYWDNILGPRVRHIWAPKTEQVLLSDGEITFLANHTLNGEILRNAESGAIDVKFFVLSEKGVIIVSLIFDGNWNGDRSTYGLSIILPQTELSFYLPLHRVCVDRLTHIIRKGRIWMHKERQENVQKIILEGTERMEDQGQSIIPMLTGEVIPVMELLSSMKSHSVPEEIDIADTVLNDDDIGDSCHEGFLLNAISSHLQTCGCSVVVGSSAEKVNKIVRTLCLFLTPAERKCSRLCEAESSFKYESGLFVQGLLKDSTGSFVLPFRQVMYAPYPTTHIDVDVNTVKQMPPCHEHIYNQRRYMRSELTAFWRATSEEDMAQDTIIYTDESFTPDLNIFQDVLHRDTLVKAFLDQVFQLKPGLSLRSTFLAQFLLVLHRKALTLIKYIEDDTQKGKKPFKSLRNLKIDLDLTAEGDLNIIMALAEKIKPGLHSFIFGRPFYTSVQERDVLMTF
	binds	UBL4A, endogenous (protein, UniProt P11441 1-157) MQLTVKALQGRECSLQVPEDELVSTLKQLVSEKLNVPVRQQRLLFKGKALADGKRLSDYSIGPNSKLNLVVKPLEKVLLEEGEAQRLADSPPPQVWQLISKVLARHFSAADASRVLEQLQRDYERSLSRLTLDDIERLASRFLHPEVTETMEKGFSK

From article PMC10398660
